Results as given in US7001907B2, “Peptide-containing α-ketoamide cysteine and serine protease inhibitors” (Cephaon, Inc., priority 1997, dated 2006).
Where two headings read alike, the source gives them in different places. The match of structure and compound is tentative.

Protein sequences, listed by entry. Tags and fused reporters are not part of them.
UniProt P07384, whole entry: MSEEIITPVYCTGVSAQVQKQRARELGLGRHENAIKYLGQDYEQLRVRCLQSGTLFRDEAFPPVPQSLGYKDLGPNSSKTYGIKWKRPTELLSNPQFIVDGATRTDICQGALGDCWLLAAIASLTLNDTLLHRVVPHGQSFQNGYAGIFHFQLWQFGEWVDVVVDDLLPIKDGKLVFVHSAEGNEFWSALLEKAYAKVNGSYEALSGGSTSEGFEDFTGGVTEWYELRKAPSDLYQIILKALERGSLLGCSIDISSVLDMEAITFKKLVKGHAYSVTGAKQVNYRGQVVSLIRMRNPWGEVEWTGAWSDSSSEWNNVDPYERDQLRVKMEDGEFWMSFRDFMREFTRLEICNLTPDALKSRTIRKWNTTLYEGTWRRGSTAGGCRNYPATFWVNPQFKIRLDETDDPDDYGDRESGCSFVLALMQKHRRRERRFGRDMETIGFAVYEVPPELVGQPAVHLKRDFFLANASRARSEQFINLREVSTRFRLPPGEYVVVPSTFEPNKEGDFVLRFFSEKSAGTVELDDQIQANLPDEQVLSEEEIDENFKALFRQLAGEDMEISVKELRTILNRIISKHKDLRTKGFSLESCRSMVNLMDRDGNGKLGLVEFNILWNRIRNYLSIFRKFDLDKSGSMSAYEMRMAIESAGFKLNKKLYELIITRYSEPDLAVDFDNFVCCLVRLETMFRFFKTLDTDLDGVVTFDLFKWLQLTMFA
UniProt P04632, whole entry partner: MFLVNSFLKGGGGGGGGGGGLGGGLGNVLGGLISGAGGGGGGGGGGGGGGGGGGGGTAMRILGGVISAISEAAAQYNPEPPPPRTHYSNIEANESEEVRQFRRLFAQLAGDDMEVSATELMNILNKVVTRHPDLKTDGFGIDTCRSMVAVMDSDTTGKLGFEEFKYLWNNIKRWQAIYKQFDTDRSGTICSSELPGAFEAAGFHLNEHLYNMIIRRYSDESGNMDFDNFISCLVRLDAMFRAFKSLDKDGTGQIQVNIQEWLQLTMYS

Biological target: Recombinant human calpain I (Homo sapiens, UniProt P07384)
Experiment: Inhibition of cysteine protease activity: calpain I, Succ-Leu-Tyr-MNA substrate hydrolysis
Details: read-out: Calpain IC50 nM
[1] = Table 5, achiral P2 mimetic α-ketoamides

SMILES: CC(=O)N1CCN(Cc2ccc(S(=O)(=O)NCCNC(=O)C(=O)[C@H](Cc3ccccc3)NC(=O)c3c(Cl)cccc3Cl)cc2)CC1
- IC50 [1]: 100 nM

SMILES: CCN(C)Cc1cccc(-c2ccc(S(=O)(=O)NCCNC(=O)C(=O)[C@H](Cc3ccccc3)NC(=O)[C@@H](COCc3ccccc3)NS(C)(=O)=O)s2)c1
- IC50 (Table 4, α-ketoamides): 10 nM

SMILES: O=C(NCCNS(=O)(=O)c1ccc(-c2ccccn2)s1)C(=O)[C@H](Cc1ccccc1)NC(=O)c1c(F)cc(F)cc1F
- IC50 [1]: 85 nM

SMILES: CC(=O)Nc1cccc(-c2ccc(S(=O)(=O)NCCNC(=O)C(=O)[C@H](Cc3ccccc3)NC(=O)c3c(Cl)cccc3Cl)s2)c1
- IC50 [1]: 20 nM

SMILES: CS(=O)(=O)N[C@H](COCc1ccccc1)C(=O)N[C@@H](Cc1ccccc1)C(=O)C(=O)NCCNS(=O)(=O)c1ccc(-c2cccs2)s1
- IC50 (Table 2, linear α-ketoamides): 11 nM

SMILES: O=C(NCCNS(=O)(=O)c1ccc(-c2ccccn2)s1)C(=O)[C@H](Cc1ccccc1)NC(=O)c1c(F)c(F)c(F)c(F)c1F
- IC50 [1]: 28 nM

SMILES: CC/C=C/CC(=O)N[C@@H](Cc1ccccc1)C(=O)C(=O)NCCNS(=O)(=O)c1ccc(-c2ccccn2)s1
- IC50 [1]: 1000 nM

SMILES: C[C@@H](CNC(=O)C(=O)[C@H](Cc1ccccc1)NC(=O)[C@@H](COCc1ccccc1)NS(C)(=O)=O)NS(=O)(=O)c1ccccc1
- IC50 (Table 3, branched-chain α-ketoamides): 26 nM

SMILES: O=C(NCCNS(=O)(=O)c1ccc(-c2ccon2)s1)C(=O)[C@H](Cc1ccccc1)NC(=O)c1c(F)cccc1C(F)(F)F
- IC50 [1]: 58 nM

SMILES: O=C(NCCNS(=O)(=O)c1ccc(-c2ccon2)s1)C(=O)[C@H](Cc1ccccc1)NC(=O)c1c(F)c(F)c(F)c(F)c1F
- IC50 [1]: 32 nM
